The target of this test is Alkylglycerone phosphate synthase (human (endogenous in U251)) (UniProt O00116). Put plainly: co-IP; U251 lysate in RIPA buffer, rabbit anti-AGPS antibody (6 ug in 500 ul total protein) overnight at 4°C, Protein A agarose beads, washed 3 times with RIPA; western blot for AGPS and HNRNPK; control, shR-AGPS1 and shR-AGPS2 cells.

Chains of the proteins cited; added tags and fusions are not shown. Residues count along the entry.
UniProt O00116, residues 59-658: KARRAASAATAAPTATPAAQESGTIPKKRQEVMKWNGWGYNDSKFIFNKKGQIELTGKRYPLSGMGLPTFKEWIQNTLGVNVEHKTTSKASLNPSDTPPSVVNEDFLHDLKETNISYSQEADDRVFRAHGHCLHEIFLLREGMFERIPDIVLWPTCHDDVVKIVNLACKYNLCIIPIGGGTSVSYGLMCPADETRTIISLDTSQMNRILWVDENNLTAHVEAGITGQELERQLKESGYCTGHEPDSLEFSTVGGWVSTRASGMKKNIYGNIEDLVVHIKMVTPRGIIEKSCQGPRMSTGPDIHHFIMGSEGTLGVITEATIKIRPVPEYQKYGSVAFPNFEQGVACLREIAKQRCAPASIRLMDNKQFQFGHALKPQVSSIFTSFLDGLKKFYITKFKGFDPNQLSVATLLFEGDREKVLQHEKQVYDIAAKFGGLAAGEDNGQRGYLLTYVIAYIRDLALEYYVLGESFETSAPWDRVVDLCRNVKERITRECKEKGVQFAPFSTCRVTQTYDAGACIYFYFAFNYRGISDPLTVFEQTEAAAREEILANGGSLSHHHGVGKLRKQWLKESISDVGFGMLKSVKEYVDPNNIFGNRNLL

These are yes or no findings as the source states them, for the method shown. In cells and extracts the contact can be indirect. Some binding calls cover weakened binding; strength is not graded here.

“Heterogeneous nuclear ribonucleoprotein K (from UniProt P61978 1-463)”: the binding result is “binds”.

The values above are taken from PMC8492241.
